Values quoted from earlier work as cited in patent publication US20220211630A1, “SOLID NANOPARTICLE FORMULATION OF WATER INSOLUBLE PHARMACEUTICAL SUBSTANCES WITH REDUCED OSTWALD RIPENING AND IMMEDIATE DRUG RELEASE FOLLOWING INTRAVENOUS ADMINISTRATION” (priority 2019, published 2022).
Some of these results come from one statement about several compounds together.

Details: oral; cited from earlier work

SMILES: CC(=O)O[C@@]12CO[C@@H]1C[C@H](O)[C@@]1(C)C(=O)[C@H](O)C3=C(C)[C@@H](OC(=O)[C@H](O)[C@@H](NC(=O)OC(C)(C)C)c4ccccc4)C[C@@](O)([C@@H](OC(=O)c4ccccc4)[C@H]21)C3(C)C [Docetaxel]
- Absorption when administered orally: less than 1%
